Test results taken from article PMC10985095.
These are yes or no findings as the source states them, for the method shown. Binding seen in cells or lysates may run through a third protein. Some binding calls cover weakened binding; strength is not graded here.

By UniProt entry, the sequences of proteins in these tests, tags left out. Where a name states a change or a piece, a line headed by the entry shows the natural chain unless it says otherwise. Chains listed by the source or under a name are the forms on record and can include a tag or linker.
UniProt Q96EB6: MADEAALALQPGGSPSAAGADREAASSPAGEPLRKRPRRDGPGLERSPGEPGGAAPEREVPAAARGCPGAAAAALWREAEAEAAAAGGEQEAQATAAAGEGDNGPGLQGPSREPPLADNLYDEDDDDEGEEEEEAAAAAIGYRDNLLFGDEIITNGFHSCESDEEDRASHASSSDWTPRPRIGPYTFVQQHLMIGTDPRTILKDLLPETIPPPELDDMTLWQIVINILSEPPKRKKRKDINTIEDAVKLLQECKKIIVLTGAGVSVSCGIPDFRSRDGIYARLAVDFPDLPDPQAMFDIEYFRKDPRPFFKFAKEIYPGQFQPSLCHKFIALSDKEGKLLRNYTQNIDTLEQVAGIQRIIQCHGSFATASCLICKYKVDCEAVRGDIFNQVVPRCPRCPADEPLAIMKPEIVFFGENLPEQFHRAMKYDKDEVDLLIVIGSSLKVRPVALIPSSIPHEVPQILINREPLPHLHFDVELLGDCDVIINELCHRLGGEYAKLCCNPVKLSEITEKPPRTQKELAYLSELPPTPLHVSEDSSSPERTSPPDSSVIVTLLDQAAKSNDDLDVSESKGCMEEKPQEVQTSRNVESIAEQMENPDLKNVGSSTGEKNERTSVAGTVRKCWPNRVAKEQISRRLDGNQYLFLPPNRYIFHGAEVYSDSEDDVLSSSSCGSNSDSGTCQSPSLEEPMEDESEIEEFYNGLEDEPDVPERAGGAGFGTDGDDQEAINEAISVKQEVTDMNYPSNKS
SIRT1 KR (construct of the AROS co-immunoprecipitation) (Q96EB6, form named): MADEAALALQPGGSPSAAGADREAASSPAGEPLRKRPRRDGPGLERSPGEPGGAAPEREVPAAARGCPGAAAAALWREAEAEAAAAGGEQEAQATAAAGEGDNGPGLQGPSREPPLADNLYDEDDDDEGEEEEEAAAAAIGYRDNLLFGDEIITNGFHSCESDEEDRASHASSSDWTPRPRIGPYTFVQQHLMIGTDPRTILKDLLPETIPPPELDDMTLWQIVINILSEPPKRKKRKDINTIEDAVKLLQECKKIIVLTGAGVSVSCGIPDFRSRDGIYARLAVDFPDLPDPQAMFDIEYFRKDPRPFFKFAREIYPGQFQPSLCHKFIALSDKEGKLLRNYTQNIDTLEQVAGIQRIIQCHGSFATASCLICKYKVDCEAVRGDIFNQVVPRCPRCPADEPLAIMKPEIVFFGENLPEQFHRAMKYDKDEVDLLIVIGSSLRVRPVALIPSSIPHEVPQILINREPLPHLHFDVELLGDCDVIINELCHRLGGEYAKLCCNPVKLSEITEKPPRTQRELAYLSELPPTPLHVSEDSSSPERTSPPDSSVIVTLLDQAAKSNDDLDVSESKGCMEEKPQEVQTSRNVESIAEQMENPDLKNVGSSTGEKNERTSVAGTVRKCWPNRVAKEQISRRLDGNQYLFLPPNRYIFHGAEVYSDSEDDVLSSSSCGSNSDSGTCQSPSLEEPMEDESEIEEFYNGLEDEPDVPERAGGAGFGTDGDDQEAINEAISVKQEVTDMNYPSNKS

Tests used:
Test in all cases: co-IP; HEK293T coexpressing AROS and SIRT1 WT or SIRT1 KR, in the absence or presence of the ISG15-conjugating system; reciprocal IP with antibodies against V5 or Xpress
[1] = target: SIRT1 WT (construct of the AROS co-immunoprecipitation) (human) (UniProt Q96EB6)
[2] = target: SIRT1 KR (construct of the AROS co-immunoprecipitation) (human) (UniProt Q96EB6)
[3] = target: ISGylated SIRT1 WT (construct of the AROS co-immunoprecipitation, coexpressed with the ISG15-conjugating system) (UniProt Q96EB6)

Measured: binding

B1: Active regulator of SIRT1 (AROS) (protein, UniProt Q86WX3 1-136)
chain: MSAALLRRGLELLAASEAPRDPPGQAKPRGAPVKRPRKTKAIQAQKLRNSAKGKVPKSALDEYRKRECRDHLRVNLKFLTRTRSTVAESVSQQILRQNRGRKACDRPVAKTKKKKAEGTVFTEEDFQKFQQEYFGS
binds: [1] | [2] | [3]
